Patent publication US7868177B2, “Multi-cyclic compounds and method of use” (Amgen Inc., priority 2006, dated 2011)
Some entries share one result that the patent states for a list of compounds.

Amino acid sequences for entries named in this document (tags omitted). Residues count along the entry.
UniProt Q02763, 23-1124: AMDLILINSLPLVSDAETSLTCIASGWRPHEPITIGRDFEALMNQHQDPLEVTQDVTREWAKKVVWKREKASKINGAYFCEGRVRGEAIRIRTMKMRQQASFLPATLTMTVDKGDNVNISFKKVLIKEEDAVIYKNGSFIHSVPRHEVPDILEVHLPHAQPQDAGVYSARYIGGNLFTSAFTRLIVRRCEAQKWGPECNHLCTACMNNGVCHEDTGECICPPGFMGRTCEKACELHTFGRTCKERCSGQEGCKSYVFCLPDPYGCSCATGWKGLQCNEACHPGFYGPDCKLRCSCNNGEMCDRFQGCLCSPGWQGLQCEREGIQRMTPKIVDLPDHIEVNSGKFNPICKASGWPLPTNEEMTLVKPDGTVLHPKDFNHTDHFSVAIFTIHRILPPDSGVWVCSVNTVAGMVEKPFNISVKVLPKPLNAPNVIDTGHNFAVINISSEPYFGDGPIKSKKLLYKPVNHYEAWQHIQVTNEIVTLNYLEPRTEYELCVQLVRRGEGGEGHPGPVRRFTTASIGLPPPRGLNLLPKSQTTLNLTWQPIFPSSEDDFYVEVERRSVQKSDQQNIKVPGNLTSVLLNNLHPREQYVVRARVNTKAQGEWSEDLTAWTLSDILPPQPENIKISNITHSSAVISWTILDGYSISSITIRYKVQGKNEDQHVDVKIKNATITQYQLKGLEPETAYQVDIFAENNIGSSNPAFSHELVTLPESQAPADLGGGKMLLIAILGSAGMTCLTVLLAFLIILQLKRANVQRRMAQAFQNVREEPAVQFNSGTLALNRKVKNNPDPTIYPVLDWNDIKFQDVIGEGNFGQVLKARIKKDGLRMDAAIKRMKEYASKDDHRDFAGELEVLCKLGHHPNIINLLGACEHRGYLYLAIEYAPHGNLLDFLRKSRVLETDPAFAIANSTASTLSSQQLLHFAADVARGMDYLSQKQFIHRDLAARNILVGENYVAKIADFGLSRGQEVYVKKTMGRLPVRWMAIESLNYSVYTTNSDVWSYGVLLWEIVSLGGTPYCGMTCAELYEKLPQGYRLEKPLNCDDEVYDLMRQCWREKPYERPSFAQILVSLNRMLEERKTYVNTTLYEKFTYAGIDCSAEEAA

These molecules were tested against Tie-2 kinase enzyme (Homo sapiens, UniProt Q02763) (assay: Tie-2 Homogenous Time Resolved Fluorescent (HTRF) kinase assay). Settings: read-out: IC50's for the inhibition of Tie-2 as measured by the HTRF assay.
Assay type: biochemical

Structure (SMILES)	IC50 [µM]
CN1CCN(c2ccc(Nc3nccc(-c4cccnc4Oc4ccc(Nc5nc6cc(F)ccc6[nH]5)cc4)n3)cc2)CC1 [Example 87, 5-fluoro-N-(4-((3-(2-((4-(4-methyl-1-piperazinyl)phenyl)amino)-4-pyrimidinyl)-2-pyridinyl)oxy)phenyl)-1H-benzimidazol-2-amine]	≤ 5
Cc1cc(Nc2nc3ccccc3[nH]2)c2ccccc2c1Oc1ncccc1-c1ccnc(N)n1 [Example 45, N-(4-((3-(2-amino-4-pyrimidinyl)-2-pyridinyl)oxy)-3-methyl-1-naphthalenyl)-1H-benzimidazol-2-amine]	≤ 5
c1cnc(Oc2ccc(Nc3nc4ccccc4[nH]3)cc2)c(-c2cn[nH]c2)c1 [Example 54, N-(4-((3-(1H-pyrazol-4-yl)-2-pyridinyl)oxy)phenyl)-1H-benzimidazol-2-amine]	≤ 5
CN(C)CCCCCCNc1nccc(-c2cccnc2Oc2ccc(Nc3nc4cc(F)c(F)cc4[nH]3)cc2)n1 [Example 99, N′-(4-(2-((4-((5,6-difluoro-1H-benzimidazol-2-yl)amino)phenyl)oxy)-3-pyridinyl)-2-pyrimidinyl)-N,N-dimethyl-1,6-hexanediamine]	≤ 5
CS(=O)(=O)c1nccc(-c2cccnc2Oc2ccc(Nc3nc4ccccc4[nH]3)c3ccccc23)n1 [Example 27, N-(4-((3-(2-(methylsulfonyl)-4-pyrimidinyl)-2-pyridinyl)oxy)-1-naphthalenyl)-1H-benzimidazol-2-amine]	≤ 5
CNc1nccc(-c2cccnc2Oc2ccc(Nc3nc4cc(C(F)(F)F)ccc4n3C)cc2)n1 [Example 68, 1-methyl-N-(4-((3-(2-(methylamino)-4-pyrimidinyl)-2-pyridinyl)oxy)phenyl)-5-(trifluoromethyl)-1H-benzimidazol-2-amine]	≤ 5
CNc1nccc(-c2cccnc2Oc2ccc(Nc3nc4ccccc4[nH]3)c(C)c2)n1 [Example 78, N-(2-methyl-4-((3-(2-(methylamino)-4-pyrimidinyl)-2-pyridinyl)oxy)phenyl)-1H-benzimidazol-2-amine]	≤ 5
CNc1nccc(-c2cccnc2Oc2ccc(Nc3nc4ccccc4[nH]3)c(C)c2C)n1 [Example 79, N-(2,3-dimethyl-4-((3-(2-(methylamino)-4-pyrimidinyl)-2-pyridinyl)oxy)phenyl)-1H-benzimidazol-2-amine]	≤ 5
CNc1nccc(-c2cccnc2Oc2ccc(Nc3nc4c(F)c(F)ccc4[nH]3)cc2Cl)n1 [Example 114, N-(3-chloro-4-((3-(2-(methylamino)-4-pyrimidinyl)-2-pyridinyl)oxy)phenyl)-4,5-difluoro-1H-benzimidazol-2-amine]	≤ 5
CNc1nccc(-c2cccnc2Oc2ccc(Nc3nc4ccccc4[nH]3)cc2OC)n1 [Example 109, N-(4-((3-(2-(methylamino)-4-pyrimidinyl)-2-pyridinyl)oxy)-3-(methyloxy)phenyl)-1H-benzimidazol-2-amine]	≤ 5
c1cnc(Oc2ccc(Nc3nc4ccccc4[nH]3)c3ccccc23)c(-c2ccnc(NCCN3CCOCC3)n2)c1 [Example 22, N-(4-((3-(2-((2-(4-morpholinyl)ethyl)amino)-4-pyrimidinyl)-2-pyridinyl)oxy)-1-naphthalenyl)-1H-benzimidazol-2-amine]	≤ 5
CNc1nccc(-c2cccnc2Oc2ccc(Nc3nc4cc(F)c(F)cc4[nH]3)cc2C)n1 [Example 76, 5,6-difluoro-N-(3-methyl-4-((3-(2-(methylamino)-4-pyrimidinyl)-2-pyridinyl)oxy)phenyl)-1H-benzimidazol-2-amine]	≤ 5
CNc1ncnc(-c2cccnc2Oc2ccc(Nc3nc4ccccc4[nH]3)c3ccccc23)n1 [Example 17, N-(4-((3-(4-(methylamino)-1,3,5-triazin-2-yl)-2-pyridinyl)oxy)-1-naphthalenyl)-1H-benzimidazol-2-amine]	≤ 5
CNc1nccc(-c2cccnc2Oc2ccc(Nc3nc4cc(F)cc(F)c4[nH]3)c3ccccc23)n1 [Example 28, 5,7-difluoro-N-(4-((3-(2-(methylamino)-4-pyrimidinyl)-2-pyridinyl)oxy)-1-naphthalenyl)-1H-benzimidazol-2-amine]	≤ 5
CNc1nccc(-c2cccnc2Oc2ccc(Nc3nc4cc(F)c(F)cc4[nH]3)cc2)n1 [Example 69, 5,6-difluoro-N-(4-((3-(2-(methylamino)-4-pyrimidinyl)-2-pyridinyl)oxy)phenyl)-1H-benzimidazol-2-amine]	≤ 5
CN1CCN(c2ccc(Nc3nccc(-c4cccnc4Oc4ccc(Nc5nc6cc(F)c(F)cc6[nH]5)cc4)n3)cc2)CC1 [Example 12, 5,6-difluoro-N-(4-(3-(2-(4-(4-methylpiperazin-1-yl)phenylamino)pyrimidin-4-yl)pyridin-2-yloxy)phenyl)-1-H-benzo[d]imidazol-2-amine]	≤ 5
CNc1nccc(-c2cccnc2Oc2ccc(Nc3nc4cc(F)c(Cl)cc4[nH]3)cc2C)n1 [Example 77, 6-chloro-5-fluoro-N-(3-methyl-4-((3-(2-(methylamino)-4-pyrimidinyl)-2-pyridinyl)oxy)phenyl)-1H-benzimidazol-2-amine]	≤ 5
CN(C)CC(C)(C)CNc1nccc(-c2cccnc2Oc2ccc(Nc3nc4ccccc4[nH]3)c3ccccc23)n1 [Example 92, N′-(4-(2-((4-(1H-benzimidazol-2-ylamino)-1-naphthalenyl)oxy)-3-pyridinyl)-2-pyrimidinyl)-N,N,2,2-tetramethyl-1,3-propanediamine]	≤ 5
CNc1nccc(-c2cccnc2Oc2ccc(Nc3nc4c(F)c(F)c(F)cc4[nH]3)cc2)n1 [Example 101, 4,5,6-trifluoro-N-(4-(3-(2-(methylamino)pyrimidin-4-yl)pyridin-2-yloxy)phenyl)-1H-benzo[d]imidazol-2-amine]	≤ 5
c1cnc(Oc2ccc(Nc3nc4ccccc4[nH]3)cc2)c(-c2ccnc3[nH]ccc23)c1 [Example 103, N-(4-((3-(1H-pyrrolo[2,3-b]pyridin-4-yl)-2-pyridinyl)oxy)phenyl)-1H-benzimidazol-2-amine]	≤ 5
CNc1nccc(-c2cccnc2Oc2ccc(Nc3nc4c(C)c(C)ccc4[nH]3)cc2)n1 [Example 82, 4,5-dimethyl-N-(4-((3-(2-(methylamino)-4-pyrimidinyl)-2-pyridinyl)oxy)phenyl)-1H-benzimidazol-2-amine]	≤ 5
Nc1nccc(-c2cccnc2Oc2ccc(Nc3nnc(-c4ccccc4)s3)cc2)n1 [Example 5, 4-(2-(4-(5-phenyl-1,3,4-thiadiazol-2-ylamino)phenoxy)pyridin-3-yl)pyrimidin-2-amine]	≤ 5
CN1CCCC1CCNc1nccc(-c2cccnc2Oc2ccc(Nc3nc4ccccc4[nH]3)c3ccccc23)n1 (stereo not shown) [Example 46, N-(4-((3-(2-((2-(1-methyl-2-pyrrolidinyl)ethyl)amino)-4-pyrimidinyl)-2-pyridinyl)oxy)-1-naphthalenyl)-1H-benzimidazol-2-amine]	≤ 5
Cn1cc(-c2ccccc2)nc1Nc1ccc(Oc2ncccc2-c2ccnc(N)n2)cc1 [Example 115, 4-(2-((4-((1-methyl-4-phenyl-1H-imidazol-2-yl)amino)phenyl)oxy)-3-pyridinyl)-2-pyrimidinamine]	≤ 5
CNc1nccc(-c2cccnc2Oc2ccc(Nc3nc4ccc(F)c(F)c4[nH]3)nc2)n1 [Example 14, 6,7-difluoro-N-(5-(3-(2-(methylamino)pyrimidin-4-yl)pyridin-2-yloxy)pyridin-2-yl)-1H-benzo[d]imidazol-2-amine]	≤ 5
